The target in the experiment is CREB-binding protein (CBP) (mouse (endogenous in CATH.a)), P45481. Briefly: co-IP; 100 µg pre-cleared CATH.a total lysate with anti-CBP, anti-CREB or anti-p65 NF-κB antibody and Protein G beads, overnight at 4°C; washes with 50 mM Tris-HCl pH 7.5, 150 mM NaCl, 1% Tween-20, 0.05% Na deoxycholate and 50 mM Tris-HCl pH 7.5, 75 mM NaCl, 0.1% Tween-20; western blot; cells with no ligand, Ang II, Los, Ang II+Los. The note with it: remark: other sources report otherwise. On the technique in general: Immunoblotting shows a protein as a band on a membrane.

These are yes or no findings as the source states them, for the method shown. In cells and extracts the contact can be indirect. Some binding calls cover weakened binding; strength is not graded here.

B1: p65 NF-κB, Q04207 1-549 (protein)
chain: MDDLFPLIFPSEPAQASGPYVEIIEQPKQRGMRFRYKCEGRSAGSIPGERSTDTTKTHPTIKINGYTGPGTVRISLVTKDPPHRPHPHELVGKDCRDGYYEADLCPDRSIHSFQNLGIQCVKKRDLEQAISQRIQTNNNPFHVPIEEQRGDYDLNAVRLCFQVTVRDPAGRPLLLTPVLSHPIFDNRAPNTAELKICRVNRNSGSCLGGDEIFLLCDKVQKEDIEVYFTGPGWEARGSFSQADVHRQVAIVFRTPPYADPSLQAPVRVSMQLRRPSDRELSEPMEFQYLPDTDDRHRIEEKRKRTYETFKSIMKKSPFNGPTEPRPPTRRIAVPTRNSTSVPKPAPQPYTFPASLSTINFDEFSPMLLPSGQISNQALALAPSSAPVLAQTMVPSSAMVPLAQPPAPAPVLTPGPPQSLSAPVPKSTQAGEGTLSEALLHLQFDADEDLGALLGNSTDPGVFTDLASVDNSEFQQLLNQGVSMSHSTAEPMLMEYPEAITRLVTGSQRPPDPAPTPLGTSGLPNGLSGDEDFSSIADMDFSALLSQISS
B1: the binding entry is reported as “binds”.

The values are drawn from paper PMC3823855.
